According to patent US20070275911A1, “Targeted Drug-Formaldehyde Conjugates and Methods of Making and Using the Same” (priority 2003, published 2007):
Like-named read-outs stand apart in the source and are kept apart here. Structures were worked out from names or drawings and are uncertain.

Amino acid sequences for entries named in this document (tags omitted). Residues count along the entry.
UniProt P05106, 27-788 limits assumed: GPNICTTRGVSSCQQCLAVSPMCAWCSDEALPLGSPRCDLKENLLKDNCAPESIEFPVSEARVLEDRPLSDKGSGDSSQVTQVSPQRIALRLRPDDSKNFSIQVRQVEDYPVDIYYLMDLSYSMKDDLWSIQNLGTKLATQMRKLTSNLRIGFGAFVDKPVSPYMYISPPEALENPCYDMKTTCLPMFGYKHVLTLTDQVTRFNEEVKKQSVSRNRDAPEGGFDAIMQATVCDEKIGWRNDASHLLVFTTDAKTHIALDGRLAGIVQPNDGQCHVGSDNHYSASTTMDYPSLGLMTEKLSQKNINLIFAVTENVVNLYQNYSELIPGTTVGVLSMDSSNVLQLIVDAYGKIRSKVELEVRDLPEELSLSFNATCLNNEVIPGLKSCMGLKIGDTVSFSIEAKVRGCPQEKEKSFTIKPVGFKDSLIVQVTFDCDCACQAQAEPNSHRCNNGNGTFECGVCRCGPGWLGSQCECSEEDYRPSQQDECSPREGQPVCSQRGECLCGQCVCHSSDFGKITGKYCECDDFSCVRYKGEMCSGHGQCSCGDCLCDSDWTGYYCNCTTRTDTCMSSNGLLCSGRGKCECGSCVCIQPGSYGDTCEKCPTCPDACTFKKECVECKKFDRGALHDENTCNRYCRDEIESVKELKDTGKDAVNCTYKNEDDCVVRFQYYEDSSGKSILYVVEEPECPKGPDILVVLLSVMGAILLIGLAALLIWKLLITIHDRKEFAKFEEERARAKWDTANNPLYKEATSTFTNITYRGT
UniProt P06756, 31-889 limits assumed: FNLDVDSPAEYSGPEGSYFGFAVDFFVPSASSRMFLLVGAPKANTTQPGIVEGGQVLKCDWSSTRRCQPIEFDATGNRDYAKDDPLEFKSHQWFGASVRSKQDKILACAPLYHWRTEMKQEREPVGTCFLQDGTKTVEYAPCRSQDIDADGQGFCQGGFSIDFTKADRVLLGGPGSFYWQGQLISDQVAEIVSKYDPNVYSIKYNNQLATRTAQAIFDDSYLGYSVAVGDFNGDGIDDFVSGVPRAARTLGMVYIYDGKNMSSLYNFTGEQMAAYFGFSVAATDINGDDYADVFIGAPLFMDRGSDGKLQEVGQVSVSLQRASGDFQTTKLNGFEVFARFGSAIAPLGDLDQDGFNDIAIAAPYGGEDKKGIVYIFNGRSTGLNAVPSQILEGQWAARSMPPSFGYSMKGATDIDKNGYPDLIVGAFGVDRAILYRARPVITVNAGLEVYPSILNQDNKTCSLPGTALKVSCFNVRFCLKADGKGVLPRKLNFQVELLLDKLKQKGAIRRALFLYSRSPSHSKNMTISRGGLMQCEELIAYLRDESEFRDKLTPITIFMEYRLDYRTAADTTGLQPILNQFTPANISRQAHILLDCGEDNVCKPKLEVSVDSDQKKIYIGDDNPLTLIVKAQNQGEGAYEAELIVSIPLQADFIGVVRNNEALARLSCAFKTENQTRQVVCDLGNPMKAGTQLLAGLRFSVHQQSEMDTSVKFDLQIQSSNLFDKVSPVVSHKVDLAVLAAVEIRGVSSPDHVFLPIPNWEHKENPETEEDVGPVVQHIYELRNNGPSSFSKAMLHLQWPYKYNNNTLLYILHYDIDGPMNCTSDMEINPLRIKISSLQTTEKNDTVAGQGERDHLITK
UniProt P06756, 891-1048 partner limits assumed: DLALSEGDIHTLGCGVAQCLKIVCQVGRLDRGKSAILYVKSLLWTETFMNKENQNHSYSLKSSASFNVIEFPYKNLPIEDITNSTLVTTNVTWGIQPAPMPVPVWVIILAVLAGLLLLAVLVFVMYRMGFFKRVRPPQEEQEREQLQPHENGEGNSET

What was measured:
MDA-MB-435 cells = test: Growth inhibition assay (Example 6); assay type: cell-based, human; conditions: read-out: IC50 for inhibition of cell growth (nM), treatment time, tested form: TFA
[1] = Water solubility and storage stability of RGD constructs; conditions: −80° C., TFA salt of N-Mannich base; tested form: TFA
ανβ3 on MBA-MB-435 cells = ανβ3 on MBA-MB-435 cells (Homo sapiens, UniProt P05106+P06756); test: ανβ3 binding by flow cytometry with cyclic-(N-Me-VRGDf-NH)-Oregon Green; assay type: cell-based; conditions: absence of Mn2+, up to 100 nM

COc1cccc2c1C(=O)c1c(O)c3c(c(O)c1C2=O)CC(O)(C(=O)CO)CC3OC1CC(NCNC(=O)c2cc(C=NOCC(=O)Nc3ccc(CC4NC(=O)C(CC(=O)O)NC(=O)CNC(=O)C(CCCNC(=N)N)NC(=O)C(C(C)C)N(C)C4=O)cc3)ccc2O)C(O)C(C)O1 (centres unmarked)
IC50 (MDA-MB-435 cells; 20 min treatment): 1000 nM
IC50 (MDA-MB-435 cells; 1 h treatment): 250 nM
IC50 (MDA-MB-435 cells; 4 h treatment): 90 nM
storage stability [1]: stable for months

CC(C)[C@H]1C(=O)N[C@@H](CCCNC(=N)N)C(=O)NCC(=O)N[C@@H](CC(=O)O)C(=O)N[C@H](Cc2ccc(NC(=O)CONC(=O)c3ccc4c(c3)C(=O)OC43c4cc(F)c(O)cc4Oc4cc(O)c(F)cc43)cc2)C(=O)N1C
binding of dye to cells (ανβ3 on MBA-MB-435 cells): little binding of dye was observed
